Data from paper PMC3764190, “Type I-E CRISPR-Cas Systems Discriminate Target from Non-Target DNA through Base Pairing-Independent PAM Recognition”.
No constants are given. Whether binding was seen depends on the method and setting. Some results given as binding are weak or reduced against the parent protein; the word gives no strength.

Biological target: T1, Cse2 subunit of Cascade (Escherichia coli K12) (UniProt P76632)
T1 sequence: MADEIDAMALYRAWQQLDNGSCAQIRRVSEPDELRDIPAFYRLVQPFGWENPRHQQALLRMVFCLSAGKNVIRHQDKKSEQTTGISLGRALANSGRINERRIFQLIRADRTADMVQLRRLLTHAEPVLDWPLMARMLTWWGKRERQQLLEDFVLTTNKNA
Test: co-purification of the complex, SDS-PAGE; Cascade co-expressed in E. coli BL21 (DE3) with g8 crRNA (WT, G-1T, C-2A or C-3G), purified as in ref. 29; 12% SDS-PAGE, Coomassie Blue

B1: Cse1 subunit of Cascade (protein, UniProt Q46901 1-502)
chain: MNLLIDNWIPVRPRNGGKVQIINLQSLYCSRDQWRLSLPRDDMELAALALLVCIGQIIAPAKDDVEFRHRIMNPLTEDEFQQLIAPWIDMFYLNHAEHPFMQTKGVKANDVTPMEKLLAGVSGATNCAFVNQPGQGEALCGGCTAIALFNQANQAPGFGGGFKSGLRGGTPVTTFVRGIDLRSTVLLNVLTLPRLQKQFPNESHTENQPTWIKPIKSNESIPASSIGFVRGLFWQPAHIELCDPIGIGKCSCCGQESNLRYTGFLKEKFTFTVNGLWPHPHSPCLVTVKKGEVEEKFLAFTTSAPSWTQISRVVVDKIIQNENGNRVAAVVNQFRNIAPQSPLELIMGGYRNNQASILERRHDVLMFNQGWQQYGNVINEIVTVGLGYKTALRKALYTFAEGFKNKDFKGAGVSVHETAERHFYRQSELLIPDVLANVNFSQADEVIADLRDKLHQLCEMLFNQSVAPYAHHPKLISTLALARATLYKHLRELKPQGGPSNG
binding: binds
